Source: the supplement of paper PMC6411743
± gives the standard deviation of the averaged measurements. Only a part is listed here, and it is no random draw.

What was measured:
Experiment in all cases: NP40-soluble protein abundance relative to vehicle (solubility fold change) (ratio); higher = more soluble protein in presence of ATP
RP9 = molecular target: T1, RP9 (UniProt Q8TA86)
T1 sequence (whole entry): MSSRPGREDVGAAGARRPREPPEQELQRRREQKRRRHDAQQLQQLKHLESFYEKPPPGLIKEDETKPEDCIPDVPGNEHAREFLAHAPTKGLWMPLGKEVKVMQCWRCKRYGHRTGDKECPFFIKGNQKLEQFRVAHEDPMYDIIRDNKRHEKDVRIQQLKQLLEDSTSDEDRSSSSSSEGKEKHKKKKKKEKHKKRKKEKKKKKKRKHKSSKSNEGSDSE
Procedure, shortened: (§1)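 Across three independent experiments, values are fold changes against the detergent-processed vehicle for each replicate, based on vsn-normalised intensities. The samples were Jurkat crude lysate treated with eight concentrations (0.1 to 10 mM) for 10 min at room temperature and then 3 min at 37 °C. Lysate was solubilised with 0.8% NP40 and benzonase, ultracentrifuged, and the supernatant analysed by TMT-labelled LC-MS/MS.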

TTC9C = molecular target: T2, TTC9C (UniProt Q8N5M4)
T2 sequence (whole entry): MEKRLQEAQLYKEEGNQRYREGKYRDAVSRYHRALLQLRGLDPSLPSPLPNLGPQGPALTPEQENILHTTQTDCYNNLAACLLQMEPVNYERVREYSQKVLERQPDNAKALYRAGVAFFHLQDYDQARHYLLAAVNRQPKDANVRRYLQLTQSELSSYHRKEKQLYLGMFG
Procedure, shortened: as §1

USP38 = molecular target: T3, USP38 (UniProt Q8NB14)
T3 sequence (whole entry): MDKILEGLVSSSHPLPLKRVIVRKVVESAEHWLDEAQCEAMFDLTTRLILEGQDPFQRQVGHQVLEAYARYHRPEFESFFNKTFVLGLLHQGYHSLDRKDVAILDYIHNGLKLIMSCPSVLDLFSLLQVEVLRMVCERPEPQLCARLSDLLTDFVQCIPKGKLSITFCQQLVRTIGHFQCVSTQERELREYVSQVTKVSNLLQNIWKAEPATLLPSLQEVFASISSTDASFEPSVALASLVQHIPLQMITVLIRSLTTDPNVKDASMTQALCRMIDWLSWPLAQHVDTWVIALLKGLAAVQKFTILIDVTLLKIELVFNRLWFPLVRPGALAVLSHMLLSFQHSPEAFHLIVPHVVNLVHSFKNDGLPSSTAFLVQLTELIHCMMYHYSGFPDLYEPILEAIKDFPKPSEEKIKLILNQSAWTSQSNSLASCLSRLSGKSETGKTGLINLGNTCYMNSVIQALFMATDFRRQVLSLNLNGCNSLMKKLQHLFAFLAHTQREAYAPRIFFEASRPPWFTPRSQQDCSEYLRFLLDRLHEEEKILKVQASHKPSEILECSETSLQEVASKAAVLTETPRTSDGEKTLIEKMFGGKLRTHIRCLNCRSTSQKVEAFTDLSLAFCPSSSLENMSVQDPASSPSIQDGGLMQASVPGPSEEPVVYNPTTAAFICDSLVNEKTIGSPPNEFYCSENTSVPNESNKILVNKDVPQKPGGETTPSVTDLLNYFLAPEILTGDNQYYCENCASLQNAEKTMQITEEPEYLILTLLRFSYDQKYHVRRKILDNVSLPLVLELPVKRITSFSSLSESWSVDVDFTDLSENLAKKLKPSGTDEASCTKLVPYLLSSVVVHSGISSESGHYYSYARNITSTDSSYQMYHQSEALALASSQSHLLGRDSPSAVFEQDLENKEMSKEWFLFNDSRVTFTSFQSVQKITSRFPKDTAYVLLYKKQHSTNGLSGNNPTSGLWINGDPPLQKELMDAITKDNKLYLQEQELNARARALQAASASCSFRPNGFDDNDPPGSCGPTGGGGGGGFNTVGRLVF
Procedure, shortened: as §1

[1] = molecular target: T4, UniProt Q8IY57 and related entries
T4 sequence (whole entry): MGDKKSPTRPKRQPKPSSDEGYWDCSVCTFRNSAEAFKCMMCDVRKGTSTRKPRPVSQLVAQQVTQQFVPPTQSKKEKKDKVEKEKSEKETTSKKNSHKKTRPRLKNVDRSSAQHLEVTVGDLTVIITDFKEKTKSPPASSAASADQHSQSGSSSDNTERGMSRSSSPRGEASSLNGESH
Procedure, shortened: as §1

[2] = molecular target: T5, UniProt Q8IYB5-2|Q8IYB5-3|Q8IYB5
T5 sequence (whole entry): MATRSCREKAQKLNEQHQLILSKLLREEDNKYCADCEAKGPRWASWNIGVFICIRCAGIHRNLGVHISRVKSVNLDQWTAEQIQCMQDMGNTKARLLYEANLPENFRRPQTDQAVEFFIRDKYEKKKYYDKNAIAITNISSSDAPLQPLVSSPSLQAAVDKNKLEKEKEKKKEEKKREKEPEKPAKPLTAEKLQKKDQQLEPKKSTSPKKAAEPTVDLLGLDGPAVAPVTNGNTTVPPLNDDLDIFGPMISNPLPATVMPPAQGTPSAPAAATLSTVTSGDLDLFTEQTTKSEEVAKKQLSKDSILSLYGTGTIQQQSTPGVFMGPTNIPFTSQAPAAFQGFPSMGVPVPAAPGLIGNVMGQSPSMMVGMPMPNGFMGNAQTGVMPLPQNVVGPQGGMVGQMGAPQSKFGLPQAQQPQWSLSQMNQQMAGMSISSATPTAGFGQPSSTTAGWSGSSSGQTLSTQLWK
Procedure, shortened: as §1

[3] = molecular target: T6, UniProt Q8N0Y2 and related entries
T6 sequence (whole entry): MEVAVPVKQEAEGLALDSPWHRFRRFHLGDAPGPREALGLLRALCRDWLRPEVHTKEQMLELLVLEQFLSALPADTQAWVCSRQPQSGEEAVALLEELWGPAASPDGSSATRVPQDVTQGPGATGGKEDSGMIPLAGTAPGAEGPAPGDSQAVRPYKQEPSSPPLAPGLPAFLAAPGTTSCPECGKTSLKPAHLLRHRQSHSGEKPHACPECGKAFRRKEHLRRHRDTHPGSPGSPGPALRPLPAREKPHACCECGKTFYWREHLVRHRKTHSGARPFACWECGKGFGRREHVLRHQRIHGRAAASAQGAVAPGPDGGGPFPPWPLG
Procedure, shortened: as §1

SMILES: Nc1ncnc2c1ncn2[C@@H]1O[C@H](COP(=O)(O)OP(=O)(O)OP(=O)(O)O)[C@@H](O)[C@H]1O [adenosine triphosphate]
- NP40-soluble protein abundance (RP9; concentration: 2mM): 1.01 ± 0.12
- NP40-soluble protein abundance (RP9; concentration: 4mM): 1.02 ± 0.076
- NP40-soluble protein abundance (RP9; concentration: 6mM): 1.03 ± 0.096
- NP40-soluble protein abundance (RP9; concentration: 8mM): 0.881 ± 0.1
- NP40-soluble protein abundance (RP9; concentration: 10mM): 0.922 ± 0.17
- NP40-soluble protein abundance (TTC9C; concentration: 1mM): 0.917 ± 0.032
- NP40-soluble protein abundance (TTC9C; concentration: 2mM): 0.913 ± 0.02
- NP40-soluble protein abundance (TTC9C; concentration: 4mM): 0.8926 ± 0.0082
- NP40-soluble protein abundance (TTC9C; concentration: 6mM): 0.939 ± 0.044
- NP40-soluble protein abundance (TTC9C; concentration: 8mM): 0.893 ± 0.06
- NP40-soluble protein abundance (TTC9C; concentration: 10mM): 0.865 ± 0.031
- NP40-soluble protein abundance (USP38; concentration: 1mM): 1.08 ± 0.074
- NP40-soluble protein abundance (USP38; concentration: 2mM): 1.07 ± 0.061
- NP40-soluble protein abundance (USP38; concentration: 4mM): 1.01 ± 0.16
- NP40-soluble protein abundance (USP38; concentration: 6mM): 0.971 ± 0.16
- NP40-soluble protein abundance (USP38; concentration: 8mM): 1.05 ± 0.059
- NP40-soluble protein abundance (USP38; concentration: 10mM): 1.06 ± 0.071
- NP40-soluble protein abundance ([1]; concentration: 1mM): 0.929 ± 0.072
- NP40-soluble protein abundance ([1]; concentration: 2mM): 0.992 ± 0.019
- NP40-soluble protein abundance ([1]; concentration: 4mM): 1.02 ± 0.19
- NP40-soluble protein abundance ([1]; concentration: 6mM): 0.892 ± 0.13
- NP40-soluble protein abundance ([1]; concentration: 8mM): 1.08 ± 0.23
- NP40-soluble protein abundance ([1]; concentration: 10mM): 1.05 ± 0.056
- NP40-soluble protein abundance ([2]; concentration: 1mM): 0.986 ± 0.026
- NP40-soluble protein abundance ([2]; concentration: 2mM): 1.03 ± 0.045
- NP40-soluble protein abundance ([2]; concentration: 4mM): 0.985 ± 0.065
- NP40-soluble protein abundance ([2]; concentration: 6mM): 1.03 ± 0.072
- NP40-soluble protein abundance ([2]; concentration: 8mM): 0.96 ± 0.11
- NP40-soluble protein abundance ([2]; concentration: 10mM): 0.984 ± 0.033
- NP40-soluble protein abundance ([3]; concentration: 1mM): 1.1 ± 0.031
- NP40-soluble protein abundance ([3]; concentration: 2mM): 1.09 ± 0.059
- NP40-soluble protein abundance ([3]; concentration: 4mM): 1.02 ± 0.095
